Data as given in PubChem BioAssay AID1053208 (Peter MacCallum Cancer Centre, 2014).

- Aim: 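Find knock-downs that sensitise mouse osteosarcoma cells to doxorubicin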 (primary screen)
- Cells: mouse osteosarcoma cells, early-passage culture from an engineered mouse model of fibroblastic bone tumour
- Reagents: siRNA pool against mouse genes, 40 nM
- Duration: about 120 h (48 h before drug, then 72 h with drug)
- Treatment: doxorubicin 100 nM for 72 h, roughly 30-40% inhibitory dose
- Detection: 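Luminescent ATP signal taken as viability with or without 100 nM doxorubicin for 72 h; mean of two wells set against non-targeting siRNA and turned into robust z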
- Reading the numbers: viability z-score with doxorubicin and doxorubicin viability vs non-targeting: higher = more viable cells under doxorubicin; viability z-score without drug: higher = more viable cells with knock-down alone; z-score of drug to no-drug ratio: higher = less drug sensitisation by knock-down
- Call rule: 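a pool counts as active when its viability z-score with doxorubicin is -2 or below and its z-score without drug lies between -2 and 2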
The deposit covers about 17,000 reagents; this is an unselected part. 788 of all reagents (4.7%) were called active. 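Calls rest on z-score classes alone; an extra cut-off of viability at most 70% of control was not applied to them.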 The numbers tell different reagents against one gene apart. Reagent sequences are not shown.

| combined z-score class | viability z-score with doxorubicin | viability z-score without drug | z-score of drug to no-drug ratio | doxorubicin viability vs non-targeting | Outcome | gene | pool no. |
| --- | --- | --- | --- | --- | --- | --- | --- |
| no change with or without drug | -0.45 | 1.18 | -1.12 | 0.9 | inactive | Themis (thymocyte selection associated) | 1 |
| no change with or without drug | 1.57 | 1.18 | 0.9 | 1.08 | inactive | Rp2 (retinitis pigmentosa 2 homolog) | 1 |
| no change with or without drug | -1.12 | -0.17 | -1.01 | 0.84 | inactive | Ccl21a (C-C motif chemokine ligand 21 (serine)) | 1 |
| no change with or without drug | 0.45 | -1.35 | 1.69 | 0.98 | inactive | Ucp3 | 1 |
| low cell count with doxorubicin only | -2.02 | -1.18 | -1.35 | 0.76 | active | Pex5l (peroxisomal biogenesis factor 5-like) | 1 |
| no change with or without drug | -0.56 | 0.17 | -0.56 | 0.89 | inactive | Rwdd3 (RWD domain containing 3) | 1 |
| no change with or without drug | 0.11 | 0.84 | -0.34 | 0.95 | inactive | Rwdd3 (RWD domain containing 3) | 2 |
| high cell count with doxorubicin only | 2.47 | 0.67 | 2.14 | 1.16 | inactive | Gabrb1 (gamma-aminobutyric acid type A receptor subunit beta 1) | 1 |
| no change with or without drug | 0.34 | 1.52 | -0.56 | 0.97 | inactive | Tcf19 (transcription factor 19) | 1 |
| no change with or without drug | 0.22 | 0.67 | -0.11 | 0.96 | inactive | Daam1 (dishevelled associated activator of morphogenesis 1) | 1 |
| no change with or without drug | 0.11 | -0.34 | 0.45 | 0.95 | inactive | Or9r7 (olfactory receptor family 9 subfamily R member 7) | 1 |
| high cell count with and without drug | 2.25 | 2.02 | 1.01 | 1.14 | inactive | Or10ag53 (olfactory receptor family 10 subfamily AG member 53) | 1 |
| high cell count without drug only | 1.35 | 5.23 | -1.57 | 1.06 | inactive | Cfap263 (cilia and flagella associated protein 263) | 1 |
| no change with or without drug | -1.12 | -0.17 | -1.01 | 0.84 | inactive | Kif24 (kinesin family member 24) | 1 |
| low cell count with doxorubicin only | -2.25 | -1.35 | -1.46 | 0.74 | active | Tnfaip8 (tumor necrosis factor, alpha-induced protein 8) | 1 |
| no change with or without drug | -0.22 | 0 | -0.11 | 0.92 | inactive | Pkdrej (polycystin (PKD) family receptor for egg jelly) | 1 |
| low cell count with doxorubicin only | -2.02 | -0.84 | -1.57 | 0.76 | active | Arf3 (ARF GTPase 3) | 1 |
| no change with or without drug | -0.67 | 0.34 | -0.79 | 0.88 | inactive | 4930563M21Rik (RIKEN cDNA 4930563M21 gene) | 1 |
| no change with or without drug | -1.35 | -1.35 | -0.45 | 0.82 | inactive | Klrb1a (killer cell lectin-like receptor subfamily B member 1A) | 1 |
| no change with or without drug | -0.22 | -0.17 | 0 | 0.92 | inactive | Srbd1 (S1 RNA binding domain 1) | 1 |
| no change with or without drug | -1.24 | -1.18 | -0.45 | 0.83 | inactive | Or13n4 (olfactory receptor family 13 subfamily N member 4) | 1 |
| no change with or without drug | 0.67 | 1.01 | 0.11 | 1 | inactive | Crym (crystallin, mu) | 1 |
| no change with or without drug | -0.45 | 0.17 | -0.45 | 0.9 | inactive | Nek2 (NIMA (never in mitosis gene a)-related expressed kinase 2) | 1 |
| no change with or without drug | 1.01 | 0.17 | 1.01 | 1.03 | inactive | Cast (calpastatin) | 1 |
| no change with or without drug | -0.67 | -0.51 | -0.22 | 0.88 | inactive | Ampd2 (adenosine monophosphate deaminase 2) | 1 |
| no change with or without drug | 0.22 | -0.17 | 0.45 | 0.96 | inactive | Mrpl28 (mitochondrial ribosomal protein L28) | 1 |
| no change with or without drug | -1.12 | 1.85 | -2.14 | 0.84 | inactive | 1700009J07Rik (RIKEN cDNA 1700009J07 gene) | 1 |
| no change with or without drug | 1.69 | 0.17 | 1.8 | 1.09 | inactive | Cbl (Cbl proto-oncogene) | 1 |
| high cell count with doxorubicin only | 2.14 | 1.52 | 1.24 | 1.13 | inactive | Lilra6 | 1 |
| no change with or without drug | 0.67 | -1.52 | 2.02 | 1 | inactive | Tuba1a (tubulin, alpha 1A) | 1 |
| no change with or without drug | -0.45 | -0.51 | 0 | 0.9 | inactive | Ruvbl1 (RuvB-like AAA ATPase 1) | 1 |
| low cell count with doxorubicin only | -6.3 | -1.85 | -5.96 | 0.38 | active | Cse1l (chromosome segregation 1 like) | 1 |
| no change with or without drug | 0.9 | 0.34 | 0.79 | 1.02 | inactive | 5330431K02Rik (RIKEN cDNA 5330431K02 gene) | 1 |
| no change with or without drug | 0.79 | 0.84 | 0.34 | 1.01 | inactive | Ptgs1 (prostaglandin-endoperoxide synthase 1) | 1 |

Limited to “viability z-score without drug” (4 entries from above):
Arf3 (ARF GTPase 3)	-0.84
4930563M21Rik (RIKEN cDNA 4930563M21 gene)	0.34
Klrb1a (killer cell lectin-like receptor subfamily B member 1A)	-1.35
Srbd1 (S1 RNA binding domain 1)	-0.17
